Earlier results, collected in patent publication US20200291048A1, “PRODUCTION PROCESS FOR PHOSPHOETHANOLAMINE” (BIOLIFE SCIENTIFIC LLC, priority 2019, published 2020).
At least one compound was matched to its structure with a doubt left.

Columns and labels:
acetylcholine synthesis = conditions: further studies, background
tumor = conditions: in vivo, mouse models; preclinical results from background
tumor cells = conditions: in vitro, preclinical results from background

Q: Which synthesis of acetylcholine (acetylcholine synthesis) does the source give for `NCCOP(=O)(O)O` [phosphoethanolamine, 2-aminoethyl dihydrogen phosphate] here?
A: increase the synthesis of acetylcholine

Q: What about the tumor growth (tumor) of the same compound?
A: suppressing tumor growth

Q: What about the tumor growth (tumor cells) of the same compound?
A: suppressing tumor growth
